Primary screen of a compound library

Chains of the proteins cited; added tags and fusions are not shown. Residues count along the entry.
UniProt P9WFT3, whole entry: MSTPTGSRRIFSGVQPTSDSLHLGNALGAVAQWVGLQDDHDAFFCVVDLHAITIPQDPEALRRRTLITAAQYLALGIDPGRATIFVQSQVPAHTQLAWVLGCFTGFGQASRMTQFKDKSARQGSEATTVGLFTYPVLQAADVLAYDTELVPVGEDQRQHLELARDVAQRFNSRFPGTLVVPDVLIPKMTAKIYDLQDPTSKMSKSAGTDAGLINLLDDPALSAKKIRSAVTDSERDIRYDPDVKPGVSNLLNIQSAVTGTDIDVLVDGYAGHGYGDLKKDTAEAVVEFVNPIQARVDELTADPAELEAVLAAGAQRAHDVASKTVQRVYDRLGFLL
UniProt Q4DA54, 1-478: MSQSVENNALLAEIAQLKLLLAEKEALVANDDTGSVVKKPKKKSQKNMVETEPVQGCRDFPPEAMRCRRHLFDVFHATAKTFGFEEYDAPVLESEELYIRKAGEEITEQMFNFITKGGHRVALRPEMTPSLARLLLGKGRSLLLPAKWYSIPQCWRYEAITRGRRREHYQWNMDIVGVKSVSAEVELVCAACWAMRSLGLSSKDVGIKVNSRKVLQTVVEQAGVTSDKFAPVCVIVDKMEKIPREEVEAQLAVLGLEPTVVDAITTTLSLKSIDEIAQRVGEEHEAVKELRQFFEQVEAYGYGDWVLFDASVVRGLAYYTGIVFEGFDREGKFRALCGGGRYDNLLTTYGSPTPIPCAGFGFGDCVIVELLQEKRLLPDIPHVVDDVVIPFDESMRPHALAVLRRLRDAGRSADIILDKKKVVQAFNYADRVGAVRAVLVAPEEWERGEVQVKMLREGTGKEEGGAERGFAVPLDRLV
UniProt Q8IDJ8, 1-583: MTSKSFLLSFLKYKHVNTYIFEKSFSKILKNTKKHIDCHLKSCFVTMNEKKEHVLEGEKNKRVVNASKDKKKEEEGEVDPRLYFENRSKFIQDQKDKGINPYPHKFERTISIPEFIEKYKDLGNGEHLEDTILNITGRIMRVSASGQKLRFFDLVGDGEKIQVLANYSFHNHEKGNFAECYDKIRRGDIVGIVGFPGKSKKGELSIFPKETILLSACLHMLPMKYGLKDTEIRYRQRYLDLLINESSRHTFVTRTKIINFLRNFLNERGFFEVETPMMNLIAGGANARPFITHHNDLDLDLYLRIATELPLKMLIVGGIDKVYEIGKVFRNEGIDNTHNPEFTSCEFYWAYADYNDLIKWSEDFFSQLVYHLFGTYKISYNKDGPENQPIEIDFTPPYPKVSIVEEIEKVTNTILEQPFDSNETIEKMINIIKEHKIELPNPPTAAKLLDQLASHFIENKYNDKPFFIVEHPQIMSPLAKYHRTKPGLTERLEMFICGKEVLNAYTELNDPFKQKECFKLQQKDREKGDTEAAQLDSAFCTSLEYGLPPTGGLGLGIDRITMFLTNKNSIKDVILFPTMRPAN
UniProt P9WNZ1, whole entry: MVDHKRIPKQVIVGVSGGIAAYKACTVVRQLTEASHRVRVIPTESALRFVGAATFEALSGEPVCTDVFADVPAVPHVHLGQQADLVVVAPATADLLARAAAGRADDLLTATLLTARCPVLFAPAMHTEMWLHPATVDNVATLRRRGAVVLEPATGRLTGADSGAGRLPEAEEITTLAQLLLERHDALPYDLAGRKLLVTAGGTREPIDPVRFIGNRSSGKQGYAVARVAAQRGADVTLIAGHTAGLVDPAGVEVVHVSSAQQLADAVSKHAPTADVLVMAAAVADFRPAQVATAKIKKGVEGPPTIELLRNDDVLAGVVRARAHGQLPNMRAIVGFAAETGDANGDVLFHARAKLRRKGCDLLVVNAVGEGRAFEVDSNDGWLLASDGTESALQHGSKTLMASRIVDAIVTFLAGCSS
UniProt I6X8D2, whole entry: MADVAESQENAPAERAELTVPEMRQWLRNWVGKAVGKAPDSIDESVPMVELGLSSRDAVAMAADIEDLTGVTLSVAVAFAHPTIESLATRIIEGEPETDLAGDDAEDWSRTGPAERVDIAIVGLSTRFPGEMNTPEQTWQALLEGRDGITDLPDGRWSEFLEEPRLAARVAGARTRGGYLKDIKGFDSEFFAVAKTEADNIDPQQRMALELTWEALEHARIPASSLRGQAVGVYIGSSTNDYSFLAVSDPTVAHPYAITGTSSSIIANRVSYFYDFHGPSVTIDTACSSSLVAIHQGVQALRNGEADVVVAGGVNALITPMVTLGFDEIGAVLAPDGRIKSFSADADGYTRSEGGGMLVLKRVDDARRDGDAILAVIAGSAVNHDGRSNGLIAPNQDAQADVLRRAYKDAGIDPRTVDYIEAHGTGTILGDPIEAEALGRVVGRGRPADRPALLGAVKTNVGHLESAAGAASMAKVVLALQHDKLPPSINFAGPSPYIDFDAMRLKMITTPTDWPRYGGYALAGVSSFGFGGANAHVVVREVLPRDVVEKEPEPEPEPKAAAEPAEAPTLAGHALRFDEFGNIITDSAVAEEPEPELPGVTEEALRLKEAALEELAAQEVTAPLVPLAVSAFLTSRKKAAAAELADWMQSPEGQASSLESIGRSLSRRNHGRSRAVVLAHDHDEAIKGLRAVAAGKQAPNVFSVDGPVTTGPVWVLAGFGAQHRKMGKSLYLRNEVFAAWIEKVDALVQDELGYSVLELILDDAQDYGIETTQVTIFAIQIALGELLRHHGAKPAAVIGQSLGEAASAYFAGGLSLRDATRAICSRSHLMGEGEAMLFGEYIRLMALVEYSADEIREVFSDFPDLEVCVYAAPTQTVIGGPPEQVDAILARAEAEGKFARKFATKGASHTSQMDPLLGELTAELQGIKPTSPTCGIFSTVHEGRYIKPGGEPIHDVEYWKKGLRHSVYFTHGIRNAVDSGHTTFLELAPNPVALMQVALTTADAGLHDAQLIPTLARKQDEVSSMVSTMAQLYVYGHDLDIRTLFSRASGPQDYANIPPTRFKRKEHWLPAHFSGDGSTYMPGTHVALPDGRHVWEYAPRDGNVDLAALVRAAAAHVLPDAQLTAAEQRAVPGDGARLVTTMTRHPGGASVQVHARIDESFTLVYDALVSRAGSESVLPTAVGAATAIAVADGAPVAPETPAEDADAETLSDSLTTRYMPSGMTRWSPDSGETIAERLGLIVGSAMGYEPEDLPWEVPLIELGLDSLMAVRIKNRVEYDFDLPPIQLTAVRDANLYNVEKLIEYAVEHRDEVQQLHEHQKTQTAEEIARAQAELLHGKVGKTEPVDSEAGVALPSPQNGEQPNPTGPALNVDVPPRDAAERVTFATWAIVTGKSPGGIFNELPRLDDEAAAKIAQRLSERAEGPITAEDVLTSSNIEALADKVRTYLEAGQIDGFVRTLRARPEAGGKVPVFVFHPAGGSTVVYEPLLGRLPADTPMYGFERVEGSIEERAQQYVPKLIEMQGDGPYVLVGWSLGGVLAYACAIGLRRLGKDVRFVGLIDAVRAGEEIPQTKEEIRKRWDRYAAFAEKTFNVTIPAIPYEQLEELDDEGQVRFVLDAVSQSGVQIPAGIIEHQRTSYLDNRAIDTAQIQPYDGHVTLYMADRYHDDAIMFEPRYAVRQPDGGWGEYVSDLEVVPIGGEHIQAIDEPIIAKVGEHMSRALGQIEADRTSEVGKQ

Source: ChEMBL document CHEMBL3988442, “University of Dundee, Small-Polar-MMV Screening Library” (2021).

MtTrpRS: 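Tryptophan-tRNA ligase, Mycobacterium tuberculosis (UniProt P9WFT3). Enzyme assay of tryptophanyl-tRNA synthetase; the read-out is not stated. Tested at 10 µM. Direction is not recorded; retested compounds ran higher, which suggests that high means inhibition. Of about 65,000 compounds tested this way, about 64 (0.098%) reached 50% or more in at least one test.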
TcHisRS: 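Histidine-tRNA ligase, Trypanosoma cruzi CL Brener (UniProt Q4DA54). Enzyme assay of histidyl-tRNA synthetase; the read-out is not stated. Concentration: 30 µM. Higher reads as stronger inhibition (inferred: compounds with an IC50 in retests scored well above the rest). Size under these conditions: about 69,000 compounds, about 31 of them at 50% or above in at least one test.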
PfKRS1: 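Enzyme assay of the cytosolic lysyl-tRNA synthetase in 384-well plates, read by luminescence. Target: Lysine-tRNA ligase, Plasmodium falciparum 3D7 (UniProt Q8IDJ8). Concentration: 30 µM. Higher reads as stronger inhibition, judged from the few compounds that gave an IC50. Of about 69,000 compounds tested this way, about 49 (0.071%) reached 50% or more in at least one test.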
CoaBC: 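Enzyme assay of CoaBC with a phosphate dye (Biomol Green) read at 650 nm. Target: Coenzyme A biosynthesis protein CoaBC, Mycobacterium tuberculosis (UniProt P9WNZ1). Concentration: 30 µM. Direction is inferred from only a few compounds that gave an IC50; most scored high, so higher reads as stronger inhibition. Most strong results did not repeat in a second test. Of about 67,000 compounds tested this way, about 40 (0.06%) reached 50% or more in at least one test.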
Pks13 thioesterase: 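Polyketide synthase Pks13, Mycobacterium tuberculosis (UniProt I6X8D2). Enzyme assay of the thioesterase domain of polyketide synthase 13; the read-out is not stated. Compounds at 30 µM. The record gives no direction; the compounds picked for IC50 retests had high values, so higher reads as stronger inhibition. About 67,000 compounds were tested under these conditions; 0.46% (about 300) showed 50% or more at least once.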
Leishmania in macrophages: 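Cell assay of Leishmania donovani living inside macrophages; the read-out is not stated. Tested at 30 µM. The record gives no direction; compounds that gave an IC50 in retests scored well above the rest, so higher reads as stronger inhibition. Size under these conditions: about 69,000 compounds, about 1,000 of them at 50% or above in at least one test.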

Results are given as percent effect. How 0% and 100% were set is not recorded. Most values in the screen are low, and negative values occur. Compounds were drawn at random from those tested, without regard to their results. Two or more numbers in one place are separate tests of the same structure; such repeats can differ widely. A dash means the value is not listed here; it may have been measured.

structure,MtTrpRS,TcHisRS,PfKRS1,CoaBC,Pks13 thioesterase,Leishmania in macrophages
O=C(c1cccc(F)c1Cl)N(CCO)CC1CC1,-1.938,3.509,1.827,2.428,33.38,2.017
O=C1CC[C@]2(CC[C@@H](NCc3ccc4c(c3)OCO4)CC2)N1,-0.5659,-3.883,-2.96,-2.545,-58.21,-
CCSCC(C)NCc1nncn1C1CCCCC1 (stereo unspecified),-5.498,4.065,4.984,-7.173,-5.112,21.19
Cn1ncc2c1C(COCC1CC1)CN(c1ncc(F)cn1)C2 (stereo unspecified),-,-2.21,1.678,-2.228,-1.122,18.57
O=C(NCC1(O)CCSC1)c1cccc(-n2cccn2)c1 (stereo unspecified),-1.1,8.911,1.945,-0.4819,1.954,31.21
CCc1nn(C)c2[nH]nc(NC(=O)c3cccnc3OC)c12,3.085,7.975,3.849,2.177,-10.21,-47.99
Cn1c(=O)c2c(n3ncnc13)NC(=O)CC2c1ccc(F)cc1 (stereo unspecified),-2.679,4.142,23.95,-1.316,-9.219,0.6811
Cc1ncnc2c1CCN(Cc1nccs1)CC2,-8.656,4.598,5.772,2.24,-23.65,-
Cn1cc(S(=O)(=O)NCC2CCN(C(=O)c3ccoc3)CC2)cn1,-0.2366,1.463,0.9349,3.137,-8.827,21.97
CSCC(=O)N1CCc2c(cnc(C)c2-c2noc(-c3ccco3)n2)C1,4.388,5.128,2.618,-67.28,-22.31,4.973
O=S(=O)(NCC1CCOc2ccccc2C1)N1CCOCC1 (stereo unspecified),0.4143,0,1.773,7.273,33.54,-3.26
CC(C)N1CCCC1c1cc(CO)[nH]n1.O=CO (stereo unspecified),-,-,-,-,-,3.213
CCN(CC)Cc1ccc(C(=O)N2CCCC2Cn2cc(C)cn2)o1 (stereo unspecified),-2.612,5.539,1.681,-3.861,-14.67,26.12
CC(NCCN1CCC(N(C)C)CC1)c1ccc(Cl)s1 (stereo unspecified),13.63,1.478,1.307,-18.99,6.701,43.03
O=C(NCCc1nnc2n1CCC2)NCC1(c2ccc(F)cc2)CC1,-1.018,3,4.798,-3.821,-,8.533
Cc1nccn1CCN1C(=O)CC2(CCCC2)CC1=O,-1.639,-0.8696,9.887,0.3501,-14.89,-10.56
CSc1ccc(C(C(=O)O)N2CCC(C(=O)N3CCCC3)CC2)cc1 (stereo unspecified),-1.502,2.632,-0.3896,0.1233,-11.98,15.54
O=C(CCOc1ccccc1)N1CCCC(c2ncc[nH]2)C1 (stereo unspecified),0.9517,3.659,1.565,4.684,-10.07,-29.11
CC[C@@H]1N(Cc2cc(OC)cc(OC)c2)CCC[C@]12CCC(=O)N2C,-4.809,3.365,1.836,12.89 & 25.65,-13.69,9.059
NC(=O)c1ccc(CNC2CCCSC2)cc1 (stereo unspecified),-4.137,5.732,0.2462,-,-26.36,2.059
c1ccc(-n2nnnc2NCc2ccc3c(c2)OCO3)cc1,0.9492,-4.969,6.019,2.152,10.82,42.48
CC(C)c1nc(CSc2nnc(-c3cccs3)n2CC(N)=O)no1,-2.413,-0.5291,3.643,4.573,0.8454,27.94
Cc1nccc(N2C[C@H](NC(=O)CNS(C)(=O)=O)[C@@H](C3CC3)C2)n1,-2.974,2.703,4.617,0,-18.06,9.321
Cc1cc(C[C@@H]2COC[C@H]2NCc2ccc(Br)s2)on1.O=C(O)CC(O)(CC(=O)O)C(=O)O,-,-,-,-,-,-12.17
CCSCc1ccc(C(=O)N2CCCN(CC)CC2)cc1,5.677,7.071,1.22,-6.397,3.296,5.002
Cc1ccc2nc(CN(C)Cc3n[nH]c4c3CCCCC4)[nH]c2c1C,-5.415,7.447,7.603,4.303,-25.46,99.15
Cc1cc(CN2CCC3(CC2)CC(C(=O)O)N(C(=O)C2CC2)C3)oc1C (stereo unspecified),0.503,3.665,1.163,13.79,-34.81,30.78
Cn1cc(CN2CCCC3(CCN3S(C)(=O)=O)C2)cn1 (stereo unspecified),-0.382,7.563,2.686,-1.826,-7.106,7.509
[H][C@]12CC[C@]([H])(CN(S(=O)(=O)c3cccc(Cl)c3)C1)N(CCOC)C2=O,-,-,-,-,-,27.33
CC(NC(=O)CNS(C)(=O)=O)c1ccccc1Oc1ccccc1 (stereo unspecified),2.089,10,4.871,-19.84,-23.19,11.6
Cc1nc(C)n(CC2CCCN(Cc3cccc(C#N)c3)C2)n1 (stereo unspecified),1.174,3.759,4.648,1.779,1.47,30.41
CCOc1ccc(Br)cc1C1CCCN1 (stereo unspecified),-1.295,1.22,0.1095,-0.5063,-8.65,-
Fc1ccc(Cn2ncc3c2CN(c2ncccn2)C3)cc1,0.08085,10.06,-0.2447,5.141,-25.37,0.9416
Cc1ccc(CN2CCC3(CCC(C(=O)N(C)C)O3)CC2)o1 (stereo unspecified),-5.959,3.883,2.759,2.703,-39.01,-
CCOCC1CN(C(=O)N(C)C)Cc2nn(C)cc21 (stereo unspecified),5.142,1.622,-4.722,5.203,-10.92,18.21
O=S(=O)(c1cnccc1N1CCN(CCO)CC1)N1CCCCC1,-2.656,4.386,0.5166,-1.734,-11.4,29.86
Cc1noc(C)c1CN1CCCC2(CCN(CC3CCCC3)C2)C1 (stereo unspecified),0.4975,1.442,2.249,-2.353,-8.853,-
O=C(O)C(F)(F)F.O=C(c1ccc[nH]1)N1CCc2onc(COc3cccnc3)c2C1,-,-,-,-,-,41.84
COCCC(=O)N1C[C@@H](c2ccc(F)c(F)c2)[C@@]2(CCCC(=O)N2)C1,-8.683,3.101,0.186,-4.049,2.068,28.03
CC(C)OCCNC1(c2ccc(Cl)cc2)CCOCC1,-2.379,-0.5405,1.539,-1.364,-11.64,20.1
COc1ccc(-n2cccn2)c(CN2CCC3(CCCN(C)C3=O)C2)c1 (stereo unspecified),-0.9874,-9.231,4.68,-0.6889,-20.18,13.27
COC(=O)C(c1cc(F)ccc1F)N(C)C(=O)c1ccccn1 (stereo unspecified),-0.9938,1.433,1.185,7.578,-14.78,-5.648
COc1ccc(C(CNC(=O)NCc2csc(C)n2)N(C)C)cc1 (stereo unspecified),8.087,5.263,-0.3691,6.378,-15.03,0.5153
Cc1nnsc1C(=O)NCCNS(=O)(=O)c1cccs1,3.011,0,5.777,-3.559,-1.44,-23.26
Cn1cc(CN2CCC(F)(F)C3(CCN(c4cnccn4)C3)C2)cn1.O=C(O)C(F)(F)F.O=C(O)C(F)(F)F (stereo unspecified),-,-,-,-,-,26.67

For reference, 4 entries once more:

Result for CC(C)c1nc(CSc2nnc(-c3cccs3)n2CC(N)=O)no1 was MtTrpRS: -2.413%; TcHisRS: -0.5291%; PfKRS1: 3.643%; CoaBC: 4.573%; Pks13 thioesterase: 0.8454%; Leishmania in macrophages: 27.94%.
Result for Cn1cc(S(=O)(=O)NCC2CCN(C(=O)c3ccoc3)CC2)cn1 was MtTrpRS: -0.2366%; TcHisRS: 1.463%; PfKRS1: 0.9349%; CoaBC: 3.137%; Pks13 thioesterase: -8.827%; Leishmania in macrophages: 21.97%.
Result for Cc1cc(CN2CCC3(CC2)CC(C(=O)O)N(C(=O)C2CC2)C3)oc1C (stereo unspecified) was MtTrpRS: 0.503%; TcHisRS: 3.665%; PfKRS1: 1.163%; CoaBC: 13.79%; Pks13 thioesterase: -34.81%; Leishmania in macrophages: 30.78%.
Result for CCOc1ccc(Br)cc1C1CCCN1 (stereo unspecified) was MtTrpRS: -1.295%; TcHisRS: 1.22%; PfKRS1: 0.1095%; CoaBC: -0.5063%; Pks13 thioesterase: -8.65%.